Source: PubChem BioAssay AID190 (DTP/NCI, 2004)
The list does not hold the whole screen: it is rich in T/C values a quarter to a half above the control, in often repeated tests (any T/C) and in doses without a T/C. Further doses and runs are listed elsewhere. T/C is the treated group as % of the vehicle group. Some entries give survivors of the animals treated and no T/C: the source files T/C as zero there, which appears to mark a toxic dose or a test without result, not a measured value. Some doses without a T/C left all or most animals alive at the check, yet need not have been tolerated: the source hardly ever lists a survival T/C far under the control, and the zero likely stands for such cases as well. Counts of survivors are from the toxicity check (mostly the fifth day) where no day follows; animals may have died later. Schedules are NCI's codes, taken here to give the interval after Q, in days (D) or hours (H), and the number of doses after X. Some doses were run more than once; the results are listed from low to high. Where survival is the endpoint, the PubChem record calls one and a half times the control and up active, and a quarter to a half above the control has no call in these data; cut-offs in other NCI protocols can differ. Signs of the kind (2×) say how often a value occurs here. Some T/C values are followed by the survivors on the day toxicity was checked, most often the fifth; without a count, all were alive then.

Test system: AKR/Lw mice, AKR lymphoma ip, median survival T/C
Test: NCI In Vivo Anticancer Drug Screen. Data for tumor model Lymphoma AKR (Transplanted) (intraperitoneal) in AKR/Lw mice
Details: T/C endpoint: median survival time, higher T/C = longer survival
Procedure: The antitumor activity of compounds was measured in mice bearing transplantable tumors. Survival or tumor size were measured and the results are expressed as the measurement made in the treated group (T) divided by the measurement made in the vehicle treated control group (C). The tumor model used in this assay is Lymphoma AKR (Transplanted) (intraperitoneal) in AKR/Lw mice

[1] = dose: 6.25 mg/kg/injection, schedule: Q07DX003 (ip), vehicle: saline
[2] = dose: 15.0 mg/kg/injection, schedule: Q07DX003 (ip), vehicle: Klucel (hydroxypropylcellulose) (HPC)
[3] = dose: 20.0 mg/kg/injection, schedule: Q07DX003 (ip), vehicle: Klucel (hydroxypropylcellulose) (HPC)
[4] = dose: 25.0 mg/kg/injection, schedule: Q07DX003 (ip), vehicle: Klucel (hydroxypropylcellulose) (HPC)
[5] = dose: 30.0 mg/kg/injection, schedule: Q07DX003 (ip), vehicle: Klucel (hydroxypropylcellulose) (HPC)
[6] = dose: 50.0 mg/kg/injection, schedule: Q01DX001 (ip), vehicle: Klucel (hydroxypropylcellulose) (HPC)
[7] = dose: 50.0 mg/kg/injection, schedule: Q01DX001 (ip), vehicle: saline
[8] = dose: 75.0 mg/kg/injection, schedule: Q01DX001 (ip), vehicle: Klucel (hydroxypropylcellulose) (HPC)
[9] = dose: 100.0 mg/kg/injection, schedule: Q01DX001 (ip), vehicle: Klucel (hydroxypropylcellulose) (HPC)
[10] = dose: 100.0 mg/kg/injection, schedule: Q01DX001 (ip), vehicle: saline
[11] = dose: 31.25 mg/kg/injection, schedule: Q06HX004 (ip), vehicle: saline
[12] = dose: 40.0 mg/kg/injection, schedule: Q06HX016 (ip), vehicle: Klucel (hydroxypropylcellulose) (HPC)
[13] = dose: 50.0 mg/kg/injection, schedule: Q06HX016 (ip), vehicle: Klucel (hydroxypropylcellulose) (HPC)
[14] = dose: 60.0 mg/kg/injection, schedule: Q06HX016 (ip), vehicle: Klucel (hydroxypropylcellulose) (HPC)

**Q.** What does the source list for `O=NN(CCCl)C(=O)NC1CCCCC1`?
**A.** T/C (dose: 5.0 mg/kg/injection, schedule: Q07DX003 (ip), vehicle: Klucel (hydroxypropylcellulose) (HPC)): 92, 97, 105, 113, 115, 120 % of control; T/C [1]: 131 % of control; survivor count [1]: 4 of 10; T/C (dose: 10.0 mg/kg/injection, schedule: Q01DX001 (ip), vehicle: Klucel (hydroxypropylcellulose) (HPC), evaluated on day 5): 117 and 133 % of control; T/C (dose: 10.0 mg/kg/injection, schedule: Q01DX001 (ip), vehicle: Klucel (hydroxypropylcellulose) (HPC), evaluated on day 60): 117 and 133 % of control; T/C (dose: 10.0 mg/kg/injection, schedule: Q07DX003 (ip), vehicle: Klucel (hydroxypropylcellulose) (HPC)): 87, 102, 105, 107, 115, 117 % of control; T/C (dose: 14.0 mg/kg/injection, schedule: Q01DX001 (ip), vehicle: Klucel (hydroxypropylcellulose) (HPC), evaluated on day 5): 138 % of control; T/C (dose: 14.0 mg/kg/injection, schedule: Q01DX001 (ip), vehicle: Klucel (hydroxypropylcellulose) (HPC), evaluated on day 60): 138 % of control; survivor count (dose: 15.0 mg/kg/injection, schedule: Q04DX004 (ip), vehicle: Klucel (hydroxypropylcellulose) (HPC)): 10 of 10; T/C [2]: 95, 100, 110, 113, 152 % of control; survivor count [2]: 10 of 10; T/C (dose: 20.0 mg/kg/injection, schedule: Q01DX001 (ip), vehicle: Klucel (hydroxypropylcellulose) (HPC), evaluated on day 5): 110 and 113 % of control; T/C (dose: 20.0 mg/kg/injection, schedule: Q01DX001 (ip), vehicle: Klucel (hydroxypropylcellulose) (HPC), evaluated on day 60): 96, 103, 108, 109 [7 of 10 alive], 110, 112, 113, 120 % of control; survivor count (dose: 20.0 mg/kg/injection, schedule: Q04DX004 (ip), vehicle: Klucel (hydroxypropylcellulose) (HPC)): 10 of 10; T/C [3]: 102 [9 of 10 alive], 107 (2×), 113, 118 % of control; survivor count [3]: 10 of 10; T/C (dose: 25.0 mg/kg/injection, schedule: Q01DX001 (ip), vehicle: saline): 128 % of control; T/C [4]: 100, 105, 115, 117, 126 % of control; survivor count [4]: 10 of 10; T/C (dose: 25.0 mg/kg/injection, schedule: Q07DX003 (ip), vehicle: saline): 128 % of control; T/C (dose: 27.0 mg/kg/injection, schedule: Q01DX001 (ip), vehicle: Klucel (hydroxypropylcellulose) (HPC), evaluated on day 5): 140 % of control; T/C (dose: 27.0 mg/kg/injection, schedule: Q01DX001 (ip), vehicle: Klucel (hydroxypropylcellulose) (HPC), evaluated on day 60): 140 % of control; T/C (dose: 30.0 mg/kg/injection, schedule: Q01DX001 (ip), vehicle: Klucel (hydroxypropylcellulose) (HPC), evaluated on day 5): 133 % of control; T/C (dose: 30.0 mg/kg/injection, schedule: Q01DX001 (ip), vehicle: Klucel (hydroxypropylcellulose) (HPC), evaluated on day 60): 100 [7 of 10 alive], 112 [9 of 10 alive], 116, 120, 125, 133 % of control; survivor count (dose: 30.0 mg/kg/injection, schedule: Q01DX001 (ip), vehicle: Klucel (hydroxypropylcellulose) (HPC)): 10 of 10; T/C [5]: 100, 107, 110, 115, 144 % of control; survivor count [5]: 10 of 10; T/C (dose: 40.0 mg/kg/injection, schedule: Q01DX001 (ip), vehicle: Klucel (hydroxypropylcellulose) (HPC), evaluated on day 5): 78 % of control; T/C (dose: 40.0 mg/kg/injection, schedule: Q01DX001 (ip), vehicle: Klucel (hydroxypropylcellulose) (HPC), evaluated on day 60): 90, 108, 112, 125, 141 % of control; survivor count (dose: 40.0 mg/kg/injection, schedule: Q01DX001 (ip), vehicle: Klucel (hydroxypropylcellulose) (HPC)): 6 of 10 and 7 of 10; survivor count (dose: 40.0 mg/kg/injection, schedule: Q04DX004 (ip), vehicle: Klucel (hydroxypropylcellulose) (HPC)): 10 of 10; T/C [6]: 90 [9 of 10 alive], 96 [9 of 10 alive], 104, 120, 141 % of control; survivor count [6]: 6 of 10; T/C [7]: 128 % of control; survivor count [7]: 9 of 10; T/C [8]: 108, 116 [8 of 10 alive], 120 % of control; survivor count [8]: 4 of 10, 7 of 10, 9 of 10; T/C [9]: 108, 125, 133 % of control; survivor count [9]: 2 of 10, 4 of 10, 6 of 10; T/C [10]: 125 [9 of 10 alive] and 140 % of control [8 of 10 alive]; survivor count [10]: 7 of 10; survivor count (dose: 200.0 mg/kg/injection, schedule: Q01DX001 (ip), vehicle: saline with Tween-80): 8 of 10

**Q.** For `NC(=S)N/N=C/c1ccc(O)cn1`, which T/C (dose: 1.5 mg/kg/injection, schedule: Q01DX009 (ip), vehicle: Klucel (hydroxypropylcellulose) (HPC)) is on record?
**A.** 143 % of control

**Q.** And the T/C (dose: 6.25 mg/kg/injection, schedule: Q01DX009 (ip), vehicle: Klucel (hydroxypropylcellulose) (HPC))?
**A.** 130 % of control

**Q.** And the T/C (dose: 12.5 mg/kg/injection, schedule: Q01DX009 (ip), vehicle: Klucel (hydroxypropylcellulose) (HPC))?
**A.** 140 % of control

**Q.** What about the T/C (dose: 20.0 mg/kg/injection, schedule: Q06HX016 (ip), vehicle: Klucel (hydroxypropylcellulose) (HPC)) of the same compound?
**A.** 100, 112 (2×), 125 % of control

**Q.** And the T/C (dose: 25.0 mg/kg/injection, schedule: Q01DX009 (ip), vehicle: Klucel (hydroxypropylcellulose) (HPC))?
**A.** 126 % of control

**Q.** And the T/C (dose: 30.0 mg/kg/injection, schedule: Q06HX012 (ip), vehicle: Klucel (hydroxypropylcellulose) (HPC))?
**A.** 134 % of control

**Q.** And the T/C (dose: 30.0 mg/kg/injection, schedule: Q06HX016 (ip), vehicle: Klucel (hydroxypropylcellulose) (HPC))?
**A.** 106, 112, 131, 146 % of control

**Q.** What about the T/C [11] of the same compound?
**A.** 138 % of control

**Q.** What about the survivor count [11] of the same compound?
**A.** 9 of 10

**Q.** What about the survivor count (dose: 31.25 mg/kg/injection, schedule: Q06HX008 (ip), vehicle: saline) of the same compound?
**A.** 5 of 10

**Q.** And the T/C [12]?
**A.** 87, 109, 125 % of control

**Q.** What about the survivor count [12] of the same compound?
**A.** 10 of 10

**Q.** And the T/C [13]?
**A.** 92 [9 of 10 alive] and 106 % of control

**Q.** What about the survivor count [13] of the same compound?
**A.** 9 of 10 and 10 of 10

**Q.** What about the T/C [14] of the same compound?
**A.** 118 % of control (2×)

**Q.** What about the survivor count [14] of the same compound?
**A.** 10 of 10

**Q.** And the survivor count (dose: 62.5 mg/kg/injection, schedule: Q06HX004 (ip), vehicle: saline)?
**A.** 9 of 10 and 10 of 10

**Q.** What about the survivor count (dose: 100.0 mg/kg/injection, schedule: Q01DX009 (ip), vehicle: Klucel (hydroxypropylcellulose) (HPC)) of the same compound?
**A.** 10 of 10

**Q.** And the survivor count (dose: 125.0 mg/kg/injection, schedule: Q06HX004 (ip), vehicle: saline)?
**A.** 7 of 10, 8 of 10, 10 of 10

**Q.** What about the survivor count (dose: 125.0 mg/kg/injection, schedule: Q06HX016 (ip), vehicle: saline) of the same compound?
**A.** 8 of 10

**Q.** What about the survivor count (dose: 200.0 mg/kg/injection, schedule: Q01DX009 (ip), vehicle: Klucel (hydroxypropylcellulose) (HPC)) of the same compound?
**A.** 10 of 10

**Q.** And the survivor count (dose: 400.0 mg/kg/injection, schedule: Q04DX003 (ip), vehicle: Klucel (hydroxypropylcellulose) (HPC))?
**A.** 8 of 10
